Results are given in words; binding and its absence hold for the method and conditions named. Some binding calls cover weakened binding; strength is not graded here. For part of these data: Sequences can lack the tags named with a protein.

Experimental findings from patent US20190169302A1 (SORRENTO THERAPEUTICS, published 2019) are described below.

Experiment [1] has as its target T1, human OX40 antigen (soluble, titrated in the ELISA of Example 1) (human) (UniProt P43489).
T1 sequence: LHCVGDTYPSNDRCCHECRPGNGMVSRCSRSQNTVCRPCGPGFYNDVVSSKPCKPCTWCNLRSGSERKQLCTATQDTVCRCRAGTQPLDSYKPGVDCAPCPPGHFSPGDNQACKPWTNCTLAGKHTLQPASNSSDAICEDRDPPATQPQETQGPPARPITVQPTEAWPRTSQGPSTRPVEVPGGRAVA
Briefly: ELISA, antibody coated, human OX40 antigen titrated. Background: An ELISA detects its analyte on a solid surface through an enzyme-linked reagent.

Experiment [2] has as its target T2, human OX40 antigen (captured on Ni-NTA plate, Example 4) (human) (UniProt P43489).
T2 sequence: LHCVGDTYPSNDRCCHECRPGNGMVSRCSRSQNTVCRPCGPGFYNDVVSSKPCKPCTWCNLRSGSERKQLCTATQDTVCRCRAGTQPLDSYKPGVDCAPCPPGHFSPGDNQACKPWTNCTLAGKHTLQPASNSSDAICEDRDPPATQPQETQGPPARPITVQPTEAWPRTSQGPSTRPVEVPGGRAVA
Nature of the experiment: ELISA, OX40 antigen captured on Ni-NTA plate, antibody at 1 ug/mL.

Experiment [3] deals with T3, Recombinant human OX40/His (human) (UniProt P43489).
T3 sequence: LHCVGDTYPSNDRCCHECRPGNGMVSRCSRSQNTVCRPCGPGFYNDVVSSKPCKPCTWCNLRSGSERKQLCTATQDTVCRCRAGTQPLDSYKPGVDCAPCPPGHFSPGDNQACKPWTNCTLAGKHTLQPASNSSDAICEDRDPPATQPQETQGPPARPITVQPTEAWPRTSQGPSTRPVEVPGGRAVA
Briefly: SPR (Biacore T200), antibody captured by anti-human Fc, OX40/His as analyte. (In general: SPR reads the build-up and loss of mass on a sensor chip optically.)

B1: 5-A6 variant anti-OX40 antibody (antibody, V domains shown)
VH: QVQLVQSGAEVKKPGASVKVSCKTSGYTFTGYYLHWVRQAPGQGLEWMGIINPSDGSTRNAQKFEGRVTMTRDTSTSTVYMELSSLSPEDTAVYYCARDLEYIGSGSLSWFDPWGQGTLVTVSS
VL: QSALTQPASVSGSPGQSITISCTGSSSDIGGYNSVSWYQQYPGKAPKLIIYDVNNRPSGVSNRFSGSKSGNTASLTISGLQAEDEADYYCSSYTFDTGLVYVFGTGTKVTVL
On to B1, for which, in experiment [1], the binding result is “binds”.

B2: 5-G8 variant anti-OX40 antibody (antibody, V domains shown)
VH: QVQLVQSGAEVKKPGASVKVSCKTSGYTFTGYYLHWVRQAPGQGLEWMGIINPSDGSTRNAQKFEGRVTMTRDTSTSTVYMELSSLSPEDTAVYYCARDLEYIGSGSLSWFDPWGQGTLVTVSS
VL: QSALTQPASVSGSPGQSITISCTGSSSDIGGYNSVSWYQQYPGKAPKLIIYDVNNRPSGVSNRFSGSKSGNTASLTISGLQAEDEADYYCSSYTYYTELVYVFGTGTKVTVL
For the molecule B2, the binding result in experiment [1] is listed as “binds”.

B3: 5-F5 variant anti-OX40 antibody (antibody, V domains shown)
VH: QVQLVQSGAEVKKPGASVKVSCKTSGYTFTGYYLHWVRQAPGQGLEWMGIINPSDGSTRNAQKFEGRVTMTRDTSTSTVYMELSSLSPEDTAVYYCARDLEYIGSGSLSWFDPWGQGTLVTVSS
VL: QSALTQPASVSGSPGQSITISCTGSSSDIGGYNSVSWYQQYPGKAPKLIIYDVNNRPSGVSNRFSGSKSGNTASLTISGLQAEDEADYYCSSYTYDTGLVYVFGTGTKVTVL
As to B3, the binding entry in experiment [1] is given as “binds”.

B4: 5-H6 variant anti-OX40 antibody (antibody, V domains shown)
VH: QVQLVQSGAEVKKPGASVKVSCKTSGYTFTGYYLHWVRQAPGQGLEWMGIINPSDGSTRNAQKFEGRVTMTRDTSTSTVYMELSSLSPEDTAVYYCARDLEYIGSGSLSWFDPWGQGTLVTVSS
VL: QSALTQPASVSGSPGQSITISCTGSSSDIGGYNSVSWYQQYPGKAPKLIIYDVNNRPSGVSNRFSGSKSGNTASLTISGLQAEDEADYYCSSYTYDNDLVYVFGTGTKVTVL
With B4, in experiment [1], the binding entry is on record as “binds”.

B5: 2B4 wild type anti-OX40 antibody (antibody, V domains shown)
VH: QMQLVQSGAEVKKPGASVKVSCKTSGYTFTGYYLHWVRQAPGQGLEWMGIINPSDGSTRNAQKFEGRVTMTRDTSTSTVYMELSSLSPEDTAVYYCARDLEYIGSGSLSWFDPWGQGTLVTVSS
VL: QPVLTQPASVSGSPGQSITISCTGTSSDLGAYDYVSWYQQQPGQAPKLIIYDVNNRPSGVSNRFSGSKSGNTASLTISGLQAEDEADYYCSSYTSSSTLVYVFGTGTKVTVL
notes: Fully human antibody of an IgG class, captured or detected through human Fc; the isotype control used was IgG1; also called 2B4 (WT); wild type 2B4
On to B5, for which the binding result in experiment [1], in experiment [2] and in experiment [3] was “binds” throughout.

B6: 5-C8 variant anti-OX40 antibody (antibody, V domains shown)
VH: QVQLVQSGAEVKKPGASVKVSCKTSGYTFTGYYLHWVRQAPGQGLEWMGIINPSDGSTRNAQKFEGRVTMTRDTSTSTVYMELSSLSPEDTAVYYCARDLEYIGSGSLSWFDPWGQGTLVTVSS
VL: QSALTQPASVSGSPGQSITISCTGSSSDIGGYNSVSWYQQYPGKAPKLIIYDVNNRPSGVSNRFSGSKSGNTASLTISGLQAEDEADYYCSSYTHNTGLVYVFGTGTKVTVL
Consider B6, for which, in experiment [1], the binding result was “binds”.

B7: 5-A8 variant anti-OX40 antibody (antibody, V domains shown)
VH: QVQLVQSGAEVKKPGASVKVSCKTSGYTFTGYYLHWVRQAPGQGLEWMGIINPSDGSTRNAQKFEGRVTMTRDTSTSTVYMELSSLSPEDTAVYYCARDLEYIGSGSLSWFDPWGQGTLVTVSS
VL: QSALTQPASVSGSPGQSITISCTGSSSDIGGYNSVSWYQQYPGKAPKLIIYDVNNRPSGVSNRFSGSKSGNTASLTISGLQAEDEADYYCSSYTFHTGLVYVFGTGTKVTVL
Turning to B7, the binding result in experiment [1] was “binds”.
